This is an account of results in ChEMBL document CHEMBL4513149, “CO-ADD screening of MMV (CH) - MMV compounds” (2021).

The other results are listed elsewhere or left out. Measured potencies and affinities stand elsewhere.

This assay concerns Acinetobacter baumannii. The note with it: Concentration 20 uM; ASSAY_TEST Inhibition of Bacterial Growth; detection method Absorption (OD600); MEDIA CAMHB; plate type 384well; NBS; CORNING #3640; time 18 hr.
In the case of `CC1(C)OB(O)c2ccc(C3=NOC(c4cc(Cl)c(F)c(Cl)c4)(C(F)(F)F)C3)cc21` (stereo not given), the Inhibition was 6.67%. `CO[C@@H](C(=O)N1Cc2[nH]nc(NC(=O)c3ccc(N4CCN(C)CC4)cc3)c2C1)c1ccccc1` [DANUSERTIB]: the Inhibition was found to be 11.13%. For `CNCCC(Oc1ccc(C(F)(F)F)cc1)c1ccccc1` (stereo not given) [FLUOXETINE], the Inhibition is -2.58%. As for `Cc1cccc(C(=O)Nc2ccnc(N(C)C3CCN(CC(C)C)CC3)c2)c1`, the Inhibition came out at 4.98%. As to `Cc1nn(Cc2ccccc2)c(Cl)c1C(=O)NC1CCCCCC1`, the Inhibition worked out at 8.48%.

In the case of `Cc1cc(C2=NOC(c3cc(Cl)c(F)c(Cl)c3)(C(F)(F)F)C2)ccc1C(=O)NCc1ccc2c(c1)C(C)(C)OB2O` (stereo not given), the Inhibition came to 3.06%. `CO[C@@H]1CN(c2ccc(C#CC3(O)CN4CCC3CC4)c(Cc3ccccc3)n2)C[C@H]1O` (stereo not given in full): the Inhibition is listed as 7.79%. For `CC(=O)Oc1ccccc1C(=O)Nc1ncc([N+](=O)[O-])s1` [NITAZOXANIDE], the Inhibition is listed as 9.65%.

Turning to `Cc1nn(C)c(C)c1NS(=O)(=O)c1c(Cl)cc(-c2ccnc(N3CCNCC3)c2)cc1Cl`, the Inhibition is given as 12.74%. Then `Nc1c2c(nc3sc4c(c13)CCCC4)CCCC2`, with 12.49%.

As usually defined, the Inhibition is the drop in the measured response relative to a control, in per cent.
